Measurements taken from patent publication US20180256746A1 (Iono Pharma, LLC, priority 2017, published 2018).

Assay: Determination of the bitterness threshold of clindamycin in volunteers

With `CCC[C@@H]1C[C@@H](C(=O)N[C@@H]([C@H]2O[C@H](SC)[C@H](O)[C@@H](O)[C@H]2O)[C@H](C)Cl)N(C)C1` [clindamycin, clindamycin hydrochloride] the “concentration at which volunteers felt the bitterness” value (four adult volunteers, two at each value, hydrochloride) was 10 µg/mL and 15 µg/mL, the mean bitterness threshold (mean of four volunteers) was 12.5 µg/mL and the “bitterness threshold as % of the clindamycin dose” value (relative to dose used (75 mg/5 ml)) was “approximately 0.1%”.

Values joined by “and” are separate entries in the source; they are usually repeats but may differ in a detail not shown here. Equal values may be shown once. Where a name gives a salt, the structure may show the parent alone.
